Values from PubChem BioAssay AID1159578 (Peter MacCallum Cancer Centre, 2015)
This is an unselected part of about 18,000 reagents. Over the whole deposit, about 1,030 (5.7%) were called active. 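Inactive calls also include pools with fewer than 3300 nuclei, whose migration was not assessed.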 Raw values are not corrected between plates. Not all columns of the deposit are shown.

- Aim: 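siRNA pools altering how lymphatic endothelial cells close a scratch wound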 (primary screen)
- System: human lymphatic endothelial cells
- Knock-down reagent: siRNA pool against human genes, 40 nM
- Time to read-out: 48 h after transfection
- Read-out: 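High-content imaging of dye-stained cells in a scratch assay measures filled wound area and nuclei per well; duplicate means given as ratio to mock and robust z-score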
- Scale: migration robust z-score: higher = faster migration into the scratch; nuclei per well: higher = more cells in the well
- Active means: 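Pools averaging fewer than 3300 nuclei are never called; remaining pools count as changed when migration robust z lies outside -2 to 2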
- Calls: active = migration changed; inactive = no migration change, or too few cells

| migration robust z-score | nuclei per well, duplicate mean | Call | gene symbol |
| --- | --- | --- | --- |
| -0.7 | 4571 | inactive | DERA |
| 0.44 | 5290 | inactive | DNAJC27 |
| 0.05 | 4830 | inactive | IFIH1 |
| 1.25 | 5600 | inactive | ZC3H14 |
| -3.69 | 2754 | inactive | NDUFB3 |
| 1.35 | 6390 | inactive | CRMP1 |
| -0.94 | 5312 | inactive | COL4A5 |
| 0.04 | 6925 | inactive | NRCAM |
| 0.02 | 5562 | inactive | LOC642678 (retired record) |
| -0.84 | 6025 | inactive | IAPP |
| -1.77 | 4536 | inactive | FAM181A |
| -0.97 | 6130 | inactive | MUC16 |
| -1.12 | 4603 | inactive | LYZL6 |
| -0.55 | 3934 | inactive | TSKS |
| 0.4 | 6164 | inactive | HLA-F |
| -0.75 | 5362 | inactive | FNDC1 |
| -2.06 | 3003 | inactive | TMEM177 |
| 0.91 | 5354 | inactive | JADE1 |
| -0.48 | 5818 | inactive | NPIPB15 |
| 0.07 | 6166 | inactive | ASH2L |
| 0.15 | 6633 | inactive | CWC15 |
| -0.72 | 5167 | inactive | ZNF432 |
| -0.05 | 6136 | inactive | CASQ2 |
| -0.22 | 5564 | inactive | SPIRE1 |
| 1.76 | 5176 | inactive | DEGS2 |
| -1.09 | 4131 | inactive | MAP3K13 |
| -1.09 | 4648 | inactive | SNRNP25 |
| -0.64 | 4844 | inactive | KRTAP27-1 |
| 0.18 | 5739 | inactive | PWP1 |
| 0.93 | 5417 | inactive | FBXO21 |
| -0.9 | 6044 | inactive | ZCCHC14 |
| 1.36 | 6115 | inactive | TERF2 |
| 0.28 | 5558 | inactive | CLNK |
| -0.1 | 6158 | inactive | NIP7 |
| 2.02 | 5852 | active | GBP7 |
| -0.65 | 4234 | inactive | PIK3R3 |
| -0.1 | 5588 | inactive | PHF21A |
| 1.29 | 6122 | inactive | PRAMEF3 (retired record) |
| -1.98 | 3778 | inactive | SLC39A9 |
| -0.08 | 4602 | inactive | OR1A1 |
| -1.37 | 6304 | inactive | IL17A |
| 0.57 | 6630 | inactive | MRPL32 |
| -0.43 | 6384 | inactive | OR7A17 |
| -0.73 | 5614 | inactive | UBE2U |
| 0.96 | 4477 | inactive | FPGS |
| 0.49 | 4735 | inactive | KCNE4 |
| 0.43 | 5627 | inactive | TRUB2 |
| 0.24 | 6431 | inactive | ZNF146 |
| -0.24 | 6072 | inactive | UGT2B4 |
| 0.34 | 6669 | inactive | GSX2 |
| -0.02 | 5272 | inactive | IL13RA1 |
| 0.44 | 5858 | inactive | ATF3 |
| -0.23 | 6407 | inactive | RNF126 |
| 0.31 | 5404 | inactive | SNPH |
| -4.1 | 4503 | active | HOXC5 |
| -0.38 | 7111 | inactive | PFAS |
| 0.14 | 6160 | inactive | LANCL3 |

In a second layout: results already given.
migration robust z-score,"nuclei per well, duplicate mean",Call,gene symbol
-0.73,5614,inactive,UBE2U
0.96,4477,inactive,FPGS
0.49,4735,inactive,KCNE4
0.43,5627,inactive,TRUB2
0.24,6431,inactive,ZNF146
